The text below walks through data of article PMC9068211.

Results are given in words; binding and its absence hold for the method and conditions named. In cells and extracts the contact can be indirect. Binding can be weak; no strength is given. For part of these data: Sequences can lack the tags named with a protein.

Assay [1] deals with T1, Rai14, endogenous in mouse brain (mouse (endogenous in P14 brain)) (UniProt Q9EP71).
T1 sequence: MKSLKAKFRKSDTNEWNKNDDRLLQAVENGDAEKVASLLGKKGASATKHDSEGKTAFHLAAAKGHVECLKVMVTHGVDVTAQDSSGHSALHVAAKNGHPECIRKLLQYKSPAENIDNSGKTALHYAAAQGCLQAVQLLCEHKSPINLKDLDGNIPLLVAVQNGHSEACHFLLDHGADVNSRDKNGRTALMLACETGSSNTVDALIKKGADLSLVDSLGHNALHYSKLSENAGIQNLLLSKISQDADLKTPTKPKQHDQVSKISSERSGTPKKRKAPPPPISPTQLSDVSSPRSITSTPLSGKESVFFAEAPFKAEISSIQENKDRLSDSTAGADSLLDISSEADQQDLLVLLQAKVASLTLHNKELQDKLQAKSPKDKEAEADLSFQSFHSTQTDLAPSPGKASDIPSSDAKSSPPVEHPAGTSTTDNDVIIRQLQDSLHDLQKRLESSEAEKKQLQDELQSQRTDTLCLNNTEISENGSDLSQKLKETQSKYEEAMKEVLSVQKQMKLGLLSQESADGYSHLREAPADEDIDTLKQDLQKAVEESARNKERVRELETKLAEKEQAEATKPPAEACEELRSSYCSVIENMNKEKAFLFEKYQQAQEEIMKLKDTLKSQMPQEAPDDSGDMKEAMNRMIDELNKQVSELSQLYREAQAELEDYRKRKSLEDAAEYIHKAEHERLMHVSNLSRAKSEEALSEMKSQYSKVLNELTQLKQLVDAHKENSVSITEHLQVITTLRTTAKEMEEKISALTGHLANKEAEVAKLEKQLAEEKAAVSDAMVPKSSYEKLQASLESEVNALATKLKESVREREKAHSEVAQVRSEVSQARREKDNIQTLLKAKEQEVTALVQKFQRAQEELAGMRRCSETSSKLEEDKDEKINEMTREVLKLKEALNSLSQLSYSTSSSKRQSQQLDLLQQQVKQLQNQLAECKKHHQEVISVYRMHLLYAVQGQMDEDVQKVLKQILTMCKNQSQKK
The experiment in a line: co-IP; endogenous Rai14 and Tara from P14 mouse brain lysates; modified RIPA lysis buffer; protein-A agarose, 4 °C; normal rabbit IgG as negative control.

The next assay has as its target T2, FLAG-hRai14 (human) (UniProt Q9P0K7).
T2 sequence: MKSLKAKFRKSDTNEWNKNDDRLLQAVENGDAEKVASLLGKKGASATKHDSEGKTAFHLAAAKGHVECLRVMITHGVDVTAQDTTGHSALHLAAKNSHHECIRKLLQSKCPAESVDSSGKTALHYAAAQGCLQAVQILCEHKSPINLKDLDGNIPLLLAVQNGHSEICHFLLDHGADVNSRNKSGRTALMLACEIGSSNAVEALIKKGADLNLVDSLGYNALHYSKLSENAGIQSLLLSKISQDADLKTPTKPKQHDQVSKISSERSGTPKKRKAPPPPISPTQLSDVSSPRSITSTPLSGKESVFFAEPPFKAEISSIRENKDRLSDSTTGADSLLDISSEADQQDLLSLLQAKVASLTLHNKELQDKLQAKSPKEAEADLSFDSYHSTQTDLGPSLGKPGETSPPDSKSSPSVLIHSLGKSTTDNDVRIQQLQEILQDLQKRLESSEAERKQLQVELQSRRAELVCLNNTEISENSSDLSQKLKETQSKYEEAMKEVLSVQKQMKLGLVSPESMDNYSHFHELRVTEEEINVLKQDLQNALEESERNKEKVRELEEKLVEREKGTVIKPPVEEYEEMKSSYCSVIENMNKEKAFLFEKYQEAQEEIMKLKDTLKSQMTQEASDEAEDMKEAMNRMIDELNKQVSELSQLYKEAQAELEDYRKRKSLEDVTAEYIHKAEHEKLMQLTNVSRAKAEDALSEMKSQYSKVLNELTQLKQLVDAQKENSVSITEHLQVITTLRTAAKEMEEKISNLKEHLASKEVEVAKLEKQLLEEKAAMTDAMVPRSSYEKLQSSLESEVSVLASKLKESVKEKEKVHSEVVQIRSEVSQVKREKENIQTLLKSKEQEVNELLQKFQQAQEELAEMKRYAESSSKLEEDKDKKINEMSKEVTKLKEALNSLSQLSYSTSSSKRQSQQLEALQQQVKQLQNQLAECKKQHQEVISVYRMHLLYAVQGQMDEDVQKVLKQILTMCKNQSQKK
The experiment in a line: co-IP; FLAG-Rai14 with GFP-Tara fragments co-expressed in HEK293 cells; IP with anti-FLAG antibody.

The target in assay [2] is EGFP-hTara^241-330 (human). The experiment in a line: co-IP; endogenous Rai14 with GFP-Tara deletion mutants in transfected HEK293 cells; ELB lysis buffer; control GFP-empty vector.

For Tara, endogenous in mouse brain, the binding result in assay [1] is “binds”. For “EGFP-hTara^161-499 (human) (domain or fragment)”, in the assay with FLAG-hRai14 (human), the binding result was “binds”.

B1: Rai14, endogenous in HEK293 cells (protein, UniProt Q9P0K7 1-980)
chain: T2 sequence
With B1, the binding entry in assay [2] is recorded as “binds”.
